# In paper PMC10449909:
# Protein sequences, listed by entry. Tags and fused reporters are not part of them.
# UniProt Q13546: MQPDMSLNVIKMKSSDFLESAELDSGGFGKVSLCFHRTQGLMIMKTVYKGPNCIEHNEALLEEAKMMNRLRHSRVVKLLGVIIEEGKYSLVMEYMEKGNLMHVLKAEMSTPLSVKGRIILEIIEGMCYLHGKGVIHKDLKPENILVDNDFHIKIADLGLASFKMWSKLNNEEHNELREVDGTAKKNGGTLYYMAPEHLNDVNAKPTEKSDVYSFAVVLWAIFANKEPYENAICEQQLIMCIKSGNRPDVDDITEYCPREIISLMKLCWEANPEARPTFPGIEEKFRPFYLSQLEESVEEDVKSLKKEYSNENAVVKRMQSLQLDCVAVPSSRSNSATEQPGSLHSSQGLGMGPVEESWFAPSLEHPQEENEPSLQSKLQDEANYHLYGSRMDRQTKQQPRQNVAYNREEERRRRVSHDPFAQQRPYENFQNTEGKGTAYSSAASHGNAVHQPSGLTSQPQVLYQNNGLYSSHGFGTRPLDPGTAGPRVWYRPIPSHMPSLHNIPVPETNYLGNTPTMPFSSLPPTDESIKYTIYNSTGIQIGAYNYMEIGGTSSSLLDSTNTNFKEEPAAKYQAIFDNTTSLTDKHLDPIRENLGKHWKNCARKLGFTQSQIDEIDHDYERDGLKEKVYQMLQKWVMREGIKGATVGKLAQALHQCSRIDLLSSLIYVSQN
# UniProt Q9Y572: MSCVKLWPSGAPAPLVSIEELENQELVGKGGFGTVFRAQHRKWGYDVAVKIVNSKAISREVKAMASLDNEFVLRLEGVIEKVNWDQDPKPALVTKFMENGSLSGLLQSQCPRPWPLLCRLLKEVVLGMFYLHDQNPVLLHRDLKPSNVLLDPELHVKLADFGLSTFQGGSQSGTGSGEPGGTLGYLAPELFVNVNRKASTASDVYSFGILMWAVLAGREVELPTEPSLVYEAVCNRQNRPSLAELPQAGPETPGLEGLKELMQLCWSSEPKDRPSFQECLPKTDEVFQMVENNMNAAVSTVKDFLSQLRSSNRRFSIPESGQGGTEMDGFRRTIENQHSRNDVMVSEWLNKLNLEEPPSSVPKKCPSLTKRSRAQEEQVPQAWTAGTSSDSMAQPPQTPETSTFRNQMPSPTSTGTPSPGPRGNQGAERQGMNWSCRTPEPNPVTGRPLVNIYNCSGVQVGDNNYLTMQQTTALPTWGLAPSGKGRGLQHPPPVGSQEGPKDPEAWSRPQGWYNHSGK
# Results are given in words; binding and its absence hold for the method and conditions named. Binding seen in cells or lysates may run through a third protein. Some results given as binding are weak or reduced against the parent protein; the word gives no strength.
# Target: receptor-interacting protein kinase 1 (RIPK1), human (human (endogenous in HT29)) (UniProt Q13546)
# Assay: co-IP; endogenous RIPK1 immunoprecipitated with anti-RIPK1 antibody (overnight, 4 °C; Protein A/G agarose) from RIPA lysates of L929, MDF or HT29 cells after necroptosis induction, cells pretreated with DMSO, Vemurafenib or Nec-1; RIPK3 detected by western blot
substance,measurement,value
"receptor-interacting protein kinase 3 (RIPK3), human (from UniProt Q9Y572 1-518)",binding,binds
